Assay results as given in publication PMC7549910.
Results are given in words; binding and its absence hold for the method and conditions named. A result given as binding can be weak or reduced; the word gives no strength.

Amino acid sequences for entries named in this document (tags omitted). A change or cut given only in a name is not applied to a line headed by its entry. Residues count along the entry.
UniProt Q4FE21: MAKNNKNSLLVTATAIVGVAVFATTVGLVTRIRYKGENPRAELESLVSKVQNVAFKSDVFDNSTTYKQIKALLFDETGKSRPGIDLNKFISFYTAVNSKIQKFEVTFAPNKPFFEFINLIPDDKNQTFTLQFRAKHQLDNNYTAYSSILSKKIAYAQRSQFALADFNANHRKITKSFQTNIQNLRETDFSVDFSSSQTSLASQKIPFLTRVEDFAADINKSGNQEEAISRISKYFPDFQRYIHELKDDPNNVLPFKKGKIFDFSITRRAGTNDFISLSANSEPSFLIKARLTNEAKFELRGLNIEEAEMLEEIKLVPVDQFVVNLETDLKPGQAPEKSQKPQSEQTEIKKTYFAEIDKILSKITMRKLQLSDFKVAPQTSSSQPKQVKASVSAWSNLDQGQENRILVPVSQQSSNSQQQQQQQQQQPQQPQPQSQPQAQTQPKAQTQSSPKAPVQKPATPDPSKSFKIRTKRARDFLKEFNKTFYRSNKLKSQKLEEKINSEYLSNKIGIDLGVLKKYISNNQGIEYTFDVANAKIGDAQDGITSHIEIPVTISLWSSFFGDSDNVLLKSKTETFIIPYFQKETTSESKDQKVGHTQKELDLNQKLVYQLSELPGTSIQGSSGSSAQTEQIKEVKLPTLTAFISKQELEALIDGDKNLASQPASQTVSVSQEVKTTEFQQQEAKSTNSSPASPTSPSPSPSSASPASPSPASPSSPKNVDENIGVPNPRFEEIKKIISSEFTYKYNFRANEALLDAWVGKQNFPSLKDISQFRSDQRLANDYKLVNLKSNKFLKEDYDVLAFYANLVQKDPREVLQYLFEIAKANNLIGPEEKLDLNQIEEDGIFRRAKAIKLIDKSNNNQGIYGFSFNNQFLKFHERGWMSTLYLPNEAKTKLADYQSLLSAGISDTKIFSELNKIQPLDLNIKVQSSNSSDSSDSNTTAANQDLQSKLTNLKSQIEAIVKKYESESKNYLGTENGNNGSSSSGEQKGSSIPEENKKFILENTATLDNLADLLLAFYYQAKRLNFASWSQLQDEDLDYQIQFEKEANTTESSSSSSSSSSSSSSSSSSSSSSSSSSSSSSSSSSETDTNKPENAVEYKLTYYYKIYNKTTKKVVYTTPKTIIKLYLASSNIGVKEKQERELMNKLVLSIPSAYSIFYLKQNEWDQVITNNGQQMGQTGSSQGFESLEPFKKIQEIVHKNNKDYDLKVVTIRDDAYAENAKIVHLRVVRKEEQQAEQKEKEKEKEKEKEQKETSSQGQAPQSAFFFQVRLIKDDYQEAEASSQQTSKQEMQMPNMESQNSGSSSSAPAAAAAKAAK
UniProt P08603, residues 19-1231: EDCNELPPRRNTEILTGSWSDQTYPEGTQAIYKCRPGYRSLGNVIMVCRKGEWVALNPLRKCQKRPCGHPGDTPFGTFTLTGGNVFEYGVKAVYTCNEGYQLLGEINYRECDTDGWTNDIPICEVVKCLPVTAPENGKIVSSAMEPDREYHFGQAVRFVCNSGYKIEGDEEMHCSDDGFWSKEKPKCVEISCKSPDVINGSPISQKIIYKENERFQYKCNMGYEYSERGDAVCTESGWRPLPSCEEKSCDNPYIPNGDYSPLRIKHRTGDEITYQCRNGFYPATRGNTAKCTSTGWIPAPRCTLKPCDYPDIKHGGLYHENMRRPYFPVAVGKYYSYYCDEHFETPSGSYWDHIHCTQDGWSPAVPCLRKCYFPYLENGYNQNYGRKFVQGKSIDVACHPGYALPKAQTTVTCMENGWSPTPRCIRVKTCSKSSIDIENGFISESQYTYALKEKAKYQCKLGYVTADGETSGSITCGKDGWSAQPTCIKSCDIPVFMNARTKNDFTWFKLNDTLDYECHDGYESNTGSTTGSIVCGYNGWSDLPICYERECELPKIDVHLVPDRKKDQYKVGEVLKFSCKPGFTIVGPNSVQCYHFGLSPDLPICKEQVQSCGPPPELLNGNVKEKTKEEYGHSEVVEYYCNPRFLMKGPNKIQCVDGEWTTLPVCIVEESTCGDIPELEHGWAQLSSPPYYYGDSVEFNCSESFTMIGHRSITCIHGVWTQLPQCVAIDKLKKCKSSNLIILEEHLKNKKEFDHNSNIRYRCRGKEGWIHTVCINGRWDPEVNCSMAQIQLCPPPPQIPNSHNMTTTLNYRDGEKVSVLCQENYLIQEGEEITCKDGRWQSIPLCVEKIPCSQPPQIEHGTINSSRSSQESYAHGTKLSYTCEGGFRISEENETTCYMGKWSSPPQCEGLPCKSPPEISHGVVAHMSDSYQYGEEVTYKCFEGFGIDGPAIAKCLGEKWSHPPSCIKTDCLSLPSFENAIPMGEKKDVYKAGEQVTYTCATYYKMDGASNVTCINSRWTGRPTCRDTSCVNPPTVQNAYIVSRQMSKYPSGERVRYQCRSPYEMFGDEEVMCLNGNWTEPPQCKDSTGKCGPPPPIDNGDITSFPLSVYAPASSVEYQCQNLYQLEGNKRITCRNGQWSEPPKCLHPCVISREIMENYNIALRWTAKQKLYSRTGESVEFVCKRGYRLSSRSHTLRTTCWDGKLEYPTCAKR

Biological target: P146 adhesin like-protein of M. hyopneumoniae (M. hyopneumoniae (endogenous in strain 168)) (UniProt Q4FE21)
Assay: far-Western, overlay or dot blot; surface (Triton X-114) proteins of M. hyopneumoniae strain 168 resolved by 2-DE and transferred to PVDF; 10 ug/mL factor H in TBST overnight at 4°C; rabbit anti-factor H and HRP anti-rabbit, DAB; reactive spots identified by MALDI-TOF-MS; only the binder purified

Q: Which binding does the source give for “human factor H (from UniProt P08603 19-1231)” here?
A: binds
